The supplement of paper PMC10331698
± gives the standard deviation of the averaged measurements. Most entries show no effect beyond the scatter of the controls.

What was measured:
Assay in all cases: level (log10 ratio to DMSO vehicle control); higher = higher biomarker level / cell amount than vehicle control
[1] = compound: C=C(C)C(=O)OCC(F)(F)C(F)(F)C(F)(F)C(F)(F)C(F)(F)C(F)(F)C(F)(F)F; conditions: in DMSO
Method: (§1)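 BioMAP Diversity Plus panel of 12 human primary cell co-culture systems (3C, 4H, LPS, SAg, BT, BF4T, BE3C, CASM3C, HDF3CGF, KF3CT, MyoF, Mphg). Compounds were added 1 h before stimulation and left for 24 h (MyoF 48 h; BT 72 h for soluble read-outs or 6 d for IgG). Biomarkers were read by ELISA, cytotoxicity by SRB, PBMC viability and proliferation by Alamar Blue. Each well value was divided by the mean of 8 DMSO control wells on the same plate and log10 transformed; duplicate blinded samples were tested at 4 concentrations.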

[2] = compound: C=CC(=O)OCC(F)(F)C(F)(F)C(F)(F)C(F)(F)C(F)(F)C(F)(F)C(F)(F)F [1H,1H-Perfluorooctyl acrylate]; conditions: 2200 nM; in DMSO
Method: as §1

[3] = compound: C=CC(F)(F)C(F)(F)C(F)(F)C(F)(F)C(F)(F)C(F)(F)C(F)(F)C(F)(F)C=C [1,8-Divinylperfluorooctane]; conditions: in DMSO
Method: as §1

[4] = compound: COC(=O)C(F)(F)C(F)(F)OC(F)(C(F)(F)F)C(F)(F)OC(F)=C(F)F [Methyl perfluoro(3-(1-ethenyloxypropan-2-yloxy)propanoate)]; conditions: in DMSO
Method: as §1

[5] = compound: CO[Si](C)(CCC(F)(F)C(F)(F)C(F)(F)C(F)(F)C(F)(F)C(F)(F)F)OC [Dimethoxymethyl((perfluorohexyl)ethyl)silane]; conditions: in DMSO
Method: as §1

[6] = compound: FC(F)(F)C(F)(F)C(F)(F)CC1CO1 [1H,1H-Heptafluorobutyl epoxide]; conditions: 2200 nM; in DMSO
Method: as §1

Heptafluorobutyl iodide = compound: FC(F)(F)C(F)(F)C(F)(F)CI [Heptafluorobutyl iodide]; conditions: 2200 nM; in DMSO
Method: as §1

[7] = compound: NC(=O)C(F)(F)C(F)(F)C(F)(F)C(F)F; conditions: in DMSO
Method: as §1

Pentafluoropropionamide = compound: NC(=O)C(F)(F)C(F)(F)F [Pentafluoropropionamide]; conditions: 2200 nM; in DMSO
Method: as §1

[8] = compound: NS(=O)(=O)C(F)(F)C(F)(F)C(F)(F)C(F)(F)C(F)(F)C(F)(F)C(F)(F)C(F)(F)F [Perfluorooctanesulfonamide]; conditions: in DMSO
Method: as §1

[9] = compound: O=C(O)C(F)(F)C(F)(F)C(F)F [4H-Perfluorobutanoic acid]; conditions: in DMSO
Method: as §1

[10] = compound: O=P(O)(O)CCC(F)(F)C(F)(F)C(F)(F)C(F)(F)C(F)(F)C(F)(F)F [2-(Perfluorohexyl)ethylphosphonic acid]; conditions: 2200 nM; in DMSO
Method: as §1

[11] = compound: O=S(=O)(F)C(F)(F)C(F)(F)C(F)(F)C(F)(F)C(F)(F)C(F)(F)C(F)(F)C(F)(F)F [Perfluorooctanesulfonyl fluoride]; conditions: 2200 nM; in DMSO
Method: as §1

[12] = compound: O=S(=O)(O)C(F)(F)C(F)(F)C(F)(F)C(F)(F)C(F)(F)C(F)(F)C(F)(F)C(F)(F)F [Perfluorooctanesulfonic acid]; conditions: 2200 nM; in DMSO
Method: as §1

[13] = compound: O=S(=O)(O)C(F)(F)C(F)(F)C(F)(F)C(F)(F)C(F)(F)C(F)(F)C(F)(F)C(F)(F)F [Potassium perfluorooctanesulfonate]; conditions: 2200 nM; in DMSO
Method: as §1

[14] = compound: O=S(=O)(OCC(F)(F)F)C(F)(F)C(F)(F)C(F)(F)C(F)(F)F [2,2,2-Trifluoroethyl perfluorobutanesulfonate]; conditions: 2200 nM; in DMSO
Method: as §1

[15] = compound: OCC(F)(F)C(F)(F)C(F)(F)C(F)(F)C(F)(F)C(F)F [1H,1H,7H-Dodecafluoro-1-heptanol]; conditions: 2200 nM; in DMSO
Method: as §1

[16] = compound: OCCCCC(F)(F)C(F)(F)C(F)(F)C(F)(F)F [4:4 Fluorotelomer alcohol]; conditions: 2200 nM; in DMSO
Method: as §1

Test System | level (log10) ([1]; 740 nM) | level (log10) ([1]; 2200 nM) | level (log10) [2] | level (log10) ([3]; 740 nM) | level (log10) ([3]; 2200 nM) | level (log10) ([4]; 740 nM) | level (log10) ([4]; 2200 nM) | level (log10) ([5]; 740 nM) | level (log10) ([5]; 2200 nM) | level (log10) [6] | level (log10) (Heptafluorobutyl iodide) | level (log10) ([7]; 2200 nM) | level (log10) ([7]; 6700 nM) | level (log10) ([7]; 20000 nM) | level (log10) ([7]; 60000 nM) | level (log10) (Pentafluoropropionamide) | level (log10) ([8]; 2200 nM) | level (log10) ([8]; 6700 nM) | level (log10) ([8]; 20000 nM) | level (log10) ([9]; 2200 nM) | level (log10) ([9]; 6700 nM) | level (log10) ([9]; 20000 nM) | level (log10) ([9]; 60000 nM) | level (log10) [10] | level (log10) [11] | level (log10) [12] | level (log10) [13] | level (log10) [14] | level (log10) [15] | level (log10) [16]
KF3CT:CCL2/MCP-1 | 0.03 ± 0.089 | -0.005 ± 0.028 | -0.0375 ± 0.054 | 0.005 ± 0.054 | -0.017 ± 0.011 | -0.0115 ± 0.00071 | 0.0095 ± 0.0021 | 0.001 ± 0.042 | -0.032 ± 0.013 | -0.0075 ± 0.071 | -0.005 ± 0.013 | 0.012 ± 0.067 | -0.0055 ± 0.018 | -0.0245 ± 0.0078 | 0.0205 ± 0.026 | 0.0015 ± 0.036 | 0.0555 ± 0.03 | 0.025 ± 0.016 | 0.116 ± 0.037 | -0.0325 ± 0.025 | -0.0705 ± 0.0092 | -0.032 ± 0.0099 | -0.0115 ± 0.023 | -0.0145 ± 0.063 | -0.014 ± 0.0028 | -0.0035 ± 0.015 | 0.019 ± 0.024 | -0.005 ± 0.024 | 0.0385 ± 0.073 | -0.0065 ± 0.0078
KF3CT:CD54/ICAM-1 | -0.0005 ± 0.013 | -0.016 ± 0.0099 | 0 ± 0.0028 | -0.0125 ± 0.05 | -0.0155 ± 0.012 | -0.005 ± 0.011 | -0.009 ± 0.0042 | -0.022 ± 0.016 | 0.021 ± 0.0071 | -0.0005 ± 0.0021 | -0.015 | 0 ± 0.017 | -0.0075 ± 0.011 | -0.0255 ± 0.005 | -0.008 ± 0.0014 | -0.011 ± 0.037 | -0.0135 ± 0.013 | 0.0155 ± 0.023 | -0.0235 ± 0.028 | -0.0055 ± 0.0035 | 0.005 ± 0.0028 | -0.0115 ± 0.0035 | -0.006 ± 0.011 | -0.006 | 0.006 ± 0.014 | 0.002 ± 0.021 | -0.0135 ± 0.0021 | 0.037 ± 0.0042 | 0.0095 ± 0.028 | 0.0095 ± 0.005
KF3CT:CXCL8/IL-8 | -0.0015 ± 0.0064 | -0.0005 ± 0.011 | -0.012 | 0.0025 ± 0.03 | -0.0125 ± 0.0064 | 0 ± 0.0014 | -0.01 ± 0.016 | -0.0135 ± 0.0021 | -0.02 ± 0.0071 | -0.009 ± 0.044 | -0.0105 ± 0.0064 | 0.005 ± 0.014 | -0.009 ± 0.0028 | 0.011 ± 0.011 | 0.019 ± 0.011 | -0.0005 ± 0.028 | 0.0005 ± 0.005 | -0.0135 ± 0.021 | -0.0525 ± 0.018 | 0.005 ± 0.02 | 0.0025 ± 0.0078 | 0.01 ± 0.0085 | 0.017 ± 0.0042 | -0.013 ± 0.018 | 0.008 ± 0.055 | -0.003 ± 0.021 | 0.007 | -0.0035 ± 0.0078 | 0.0185 ± 0.03 | 0.012 ± 0.0085
KF3CT:CXCL9/MIG | 0.0015 ± 0.018 | 0.0085 ± 0.021 | 0.0085 ± 0.00071 | -0.005 ± 0.0042 | -0.003 ± 0.0042 | -0.001 ± 0.0042 | 0.009 ± 0.0099 | -0.0095 ± 0.016 | -0.004 ± 0.0042 | -0.0005 ± 0.012 | 0.001 ± 0.0042 | 0.0135 ± 0.021 | 0.019 ± 0.018 | 0.006 ± 0.02 | 0.0145 ± 0.0078 | -0.007 ± 0.0057 | 0.0005 ± 0.00071 | 0.0075 ± 0.0035 | -0.032 ± 0.034 | 0.004 ± 0.0071 | -0.004 ± 0.016 | -0.011 ± 0.011 | -0.007 ± 0.0071 | 0 ± 0.023 | -0.0005 ± 0.0035 | 0.005 ± 0.0071 | 0.007 ± 0.0042 | 0.0305 ± 0.026 | 0.006 ± 0.0028 | 0.0125 ± 0.005
KF3CT:CXCL10/IP-10 | 0.01 ± 0.014 | 0.0015 ± 0.005 | -0.004 ± 0.0057 | -0.011 ± 0.013 | -0.0085 ± 0.0021 | -0.0015 ± 0.005 | -0.0075 ± 0.00071 | 0 | -0.007 ± 0.011 | -0.0175 ± 0.022 | -0.001 ± 0.016 | 0.003 ± 0.016 | -0.001 ± 0.0014 | -0.001 ± 0.013 | 0.0025 ± 0.0064 | -0.007 ± 0.011 | 0.0015 ± 0.00071 | -0.021 ± 0.0028 | -0.205 ± 0.0092 | 0.008 ± 0.0071 | -0.007 ± 0.016 | -0.0035 ± 0.016 | 0.01 ± 0.0042 | -0.003 ± 0.014 | 0.0055 ± 0.0078 | 0.0075 ± 0.04 | 0 ± 0.028 | 0.0365 ± 0.022 | -0.0035 ± 0.00071 | 0.022 ± 0.025
KF3CT:IL-1alpha | 0.0205 ± 0.08 | -0.0085 ± 0.047 | -0.01 ± 0.016 | -0.0005 ± 0.028 | -0.0475 ± 0.0021 | 0.02 ± 0.021 | 0.0255 ± 0.025 | 0 ± 0.024 | -0.0185 ± 0.0064 | 0.0025 ± 0.05 | -0.025 ± 0.028 | 0.0115 ± 0.076 | -0.0165 ± 0.011 | -0.0265 ± 0.005 | 0.008 ± 0.045 | 0.0005 ± 0.029 | 0.0675 ± 0.018 | 0.074 ± 0.0042 | -0.056 ± 0.02 | -0.0265 ± 0.028 | 0.001 ± 0.05 | -0.0055 ± 0.005 | 0.0075 ± 0.06 | -0.0205 ± 0.023 | -0.012 ± 0.018 | 0.0175 ± 0.023 | 0.0145 ± 0.005 | 0.007 ± 0.059 | 0.0055 ± 0.021 | 0.0115 ± 0.00071
KF3CT:MMP-9 | 0.0085 ± 0.056 | 0.01 ± 0.037 | -0.0305 ± 0.022 | -0.011 ± 0.0042 | -0.0305 ± 0.00071 | -0.032 ± 0.016 | -0.0145 ± 0.005 | -0.025 ± 0.0099 | -0.0245 ± 0.015 | -0.026 ± 0.04 | -0.004 ± 0.052 | 0.003 ± 0.013 | -0.0095 ± 0.013 | 0.002 ± 0.025 | 0.0125 ± 0.023 | -0.027 ± 0.023 | 0.0135 ± 0.033 | 0.0365 ± 0.026 | -0.274 ± 0.023 | -0.0335 ± 0.032 | -0.024 ± 0.055 | -0.0395 ± 0.012 | -0.0775 ± 0.00071 | -0.0125 ± 0.012 | -0.018 ± 0.024 | -0.0035 ± 0.0021 | 0.0035 ± 0.0092 | -0.0165 ± 0.005 | 0.0125 ± 0.0035 | 0.002 ± 0.021
